Results are given in words; binding and its absence hold for the method and conditions named. Binding seen in cells or lysates may run through a third protein. Some entries that bind do so weakly or less than the wild type. For some of these results: Sequences can lack the tags named with a protein.
T1: GST-tagged SHMT2α (GST-SHMT2α) (human) (UniProt P34897)
T1 sequence: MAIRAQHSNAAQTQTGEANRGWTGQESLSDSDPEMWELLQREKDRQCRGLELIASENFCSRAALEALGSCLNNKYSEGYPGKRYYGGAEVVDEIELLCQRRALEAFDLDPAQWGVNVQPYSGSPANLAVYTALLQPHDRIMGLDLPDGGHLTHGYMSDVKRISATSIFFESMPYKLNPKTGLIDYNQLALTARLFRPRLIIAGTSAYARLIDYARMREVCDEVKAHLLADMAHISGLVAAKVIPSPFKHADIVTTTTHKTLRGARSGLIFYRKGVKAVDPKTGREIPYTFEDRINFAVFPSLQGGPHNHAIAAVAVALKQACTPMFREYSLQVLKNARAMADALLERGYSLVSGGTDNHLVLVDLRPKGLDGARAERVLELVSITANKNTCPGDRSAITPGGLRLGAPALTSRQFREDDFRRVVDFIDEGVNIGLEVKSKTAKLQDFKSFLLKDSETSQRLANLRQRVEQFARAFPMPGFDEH

Amino acid sequences for entries named in this document (tags omitted).
UniProt P35222: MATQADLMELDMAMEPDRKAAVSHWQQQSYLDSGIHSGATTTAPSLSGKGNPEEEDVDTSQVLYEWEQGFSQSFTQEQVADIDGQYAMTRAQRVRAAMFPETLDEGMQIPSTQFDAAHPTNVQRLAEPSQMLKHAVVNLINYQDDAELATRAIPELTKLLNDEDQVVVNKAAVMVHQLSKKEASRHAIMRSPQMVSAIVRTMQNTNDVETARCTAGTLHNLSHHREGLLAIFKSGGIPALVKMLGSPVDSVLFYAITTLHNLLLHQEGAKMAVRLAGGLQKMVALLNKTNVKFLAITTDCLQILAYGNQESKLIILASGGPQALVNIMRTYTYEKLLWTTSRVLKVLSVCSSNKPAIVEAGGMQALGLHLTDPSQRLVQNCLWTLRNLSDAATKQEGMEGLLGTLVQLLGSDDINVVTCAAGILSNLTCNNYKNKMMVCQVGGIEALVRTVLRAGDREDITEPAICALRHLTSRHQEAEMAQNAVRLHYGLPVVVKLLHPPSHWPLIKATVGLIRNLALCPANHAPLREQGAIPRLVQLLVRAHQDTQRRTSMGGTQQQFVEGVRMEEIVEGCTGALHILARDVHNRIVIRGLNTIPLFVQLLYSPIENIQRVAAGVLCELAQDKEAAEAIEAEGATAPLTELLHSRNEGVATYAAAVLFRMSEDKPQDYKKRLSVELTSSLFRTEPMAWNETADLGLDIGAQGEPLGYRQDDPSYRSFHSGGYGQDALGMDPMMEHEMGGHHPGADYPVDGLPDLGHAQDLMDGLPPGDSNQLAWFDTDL

T2: Flag-tagged SHMT2α (shRNA-resistant) (human) (UniProt P34897)
T2 sequence: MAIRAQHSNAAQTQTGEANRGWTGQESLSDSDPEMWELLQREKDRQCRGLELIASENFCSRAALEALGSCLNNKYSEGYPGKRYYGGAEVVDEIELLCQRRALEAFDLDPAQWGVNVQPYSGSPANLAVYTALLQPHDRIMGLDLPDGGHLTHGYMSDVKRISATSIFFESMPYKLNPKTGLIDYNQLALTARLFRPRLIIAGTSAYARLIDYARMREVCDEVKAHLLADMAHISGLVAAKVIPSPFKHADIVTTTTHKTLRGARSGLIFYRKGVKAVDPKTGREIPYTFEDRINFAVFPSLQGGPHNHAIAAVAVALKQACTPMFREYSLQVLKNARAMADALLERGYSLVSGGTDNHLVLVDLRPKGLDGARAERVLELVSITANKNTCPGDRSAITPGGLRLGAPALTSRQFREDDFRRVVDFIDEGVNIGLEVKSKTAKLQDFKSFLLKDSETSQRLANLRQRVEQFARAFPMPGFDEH

T3: Serine hydroxymethyltransferase 2 (SHMT2), endogenous (human (endogenous in HCT116 and DLD-1)) (UniProt P34897)
T3 sequence: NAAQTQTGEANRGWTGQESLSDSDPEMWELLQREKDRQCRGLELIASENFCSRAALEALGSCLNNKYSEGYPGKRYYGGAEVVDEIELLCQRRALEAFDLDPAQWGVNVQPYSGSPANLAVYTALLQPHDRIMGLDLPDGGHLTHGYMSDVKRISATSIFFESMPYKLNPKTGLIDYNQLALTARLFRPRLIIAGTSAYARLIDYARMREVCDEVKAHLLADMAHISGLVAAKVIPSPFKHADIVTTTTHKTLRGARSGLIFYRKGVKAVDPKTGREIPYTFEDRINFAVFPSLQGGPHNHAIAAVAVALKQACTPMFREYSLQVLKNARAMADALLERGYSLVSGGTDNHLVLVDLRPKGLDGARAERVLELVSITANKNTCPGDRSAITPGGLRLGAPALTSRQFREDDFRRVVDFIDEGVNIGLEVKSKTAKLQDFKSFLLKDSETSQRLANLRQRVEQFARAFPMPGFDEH


Legend:
[1] = target: T1, GST-tagged SHMT2α (GST-SHMT2α) (human); assay: pull-down; GST-SHMT2α on beads added to HCT116 cell lysates, overnight at 4 °C, washed twice with PBST, immunoblot; only the target purified
[2] = target: T2, Flag-tagged SHMT2α (shRNA-resistant) (human); assay: co-IP; stable SHMT2-knockdown HCT116 and DLD-1 cells re-expressing shRNA-resistant Flag-SHMT2α or K64R; immunoprecipitation with the indicated antibodies
[3] = target: T3, Serine hydroxymethyltransferase 2 (SHMT2), endogenous (human (endogenous in HCT116 and DLD-1)); assay: co-IP; endogenous proteins; cytoplasmic and nuclear protein separated from HCT116 and DLD-1 cells and immunoprecipitated with the indicated antibodies
[4] = target: β-catenin (human (endogenous in HCT116 and DLD-1)) (UniProt P35222); assay: pull-down; competition: excess and equal amounts of untagged SHMT2α or ΔSHMT2 added to HCT116 cell lysates before beads with GST-SHMT2α, overnight at 4 °C, immunoblot of β-catenin; only the binder purified

Row | binding [1] | binding [2] | binding [3] | binding [4] | Molecule
1 | binds | binds | binds |  | β-catenin (from UniProt P35222 1-781)
2 |  |  |  | binds | SHMT2α (GST tag cleaved by TEV protease) (enzyme, UniProt P34897 22-504) MAIRAQHSNAAQTQTGEANRGWTGQESLSDSDPEMWELLQREKDRQCRGLELIASENFCSRAALEALGSCLNNKYSEGYPGKRYYGGAEVVDEIELLCQRRALEAFDLDPAQWGVNVQPYSGSPANLAVYTALLQPHDRIMGLDLPDGGHLTHGYMSDVKRISATSIFFESMPYKLNPKTGLIDYNQLALTARLFRPRLIIAGTSAYARLIDYARMREVCDEVKAHLLADMAHISGLVAAKVIPSPFKHADIVTTTTHKTLRGARSGLIFYRKGVKAVDPKTGREIPYTFEDRINFAVFPSLQGGPHNHAIAAVAVALKQACTPMFREYSLQVLKNARAMADALLERGYSLVSGGTDNHLVLVDLRPKGLDGARAERVLELVSITANKNTCPGDRSAITPGGLRLGAPALTSRQFREDDFRRVVDFIDEGVNIGLEVKSKTAKLQDFKSFLLKDSETSQRLANLRQRVEQFARAFPMPGFDEH

From article PMC7806468
